Laboratory results: PubChem BioAssay AID330 (DTP/NCI, 2004)
The list is a part of this screen's results and no random one: it is rich in T/C values a quarter to a half above the control, in often repeated tests (any T/C) and in doses without a T/C. Other doses and runs of a compound stand elsewhere. T/C gives the treated animals as a percentage of the vehicle group. Some doses have a count of surviving animals in place of a T/C: the source files T/C as zero there, which appears to mark a toxic dose or a test without result, not a measured value. Some doses without a T/C left all or most animals alive at the check, yet need not have been tolerated: the source hardly ever lists a survival T/C far under the control, and the zero likely stands for such cases as well. Survivors were counted at the toxicity check, usually on the fifth day, unless a day is given; later deaths do not show. Schedule codes are those of the source, taken here to give the interval after Q, in days (D) or hours (H), and the number of doses after X. Some entries were tested several times; their values stand side by side, smallest first. Marks such as (2×) stand for listed records that agree. Where survival is the endpoint, the PubChem record calls one and a half times the control and up active, and a quarter to a half above the control has no call in these data; cut-offs in other NCI protocols can differ. Some T/C values are followed by the survivors on the day toxicity was checked, most often the fifth; where none is given, no animal had died by that day.

System: P388 leukemia ip, CD2F1 mice, survival T/C
Test: NCI In Vivo Anticancer Drug Screen. Data for tumor model P388 Leukemia (intraperitoneal) in CD2F1 (CDF1) mice
Conditions: T/C endpoint: median survival time, higher T/C = longer survival
[1] = dose: 100.0 mg/kg/injection, schedule: Q01DX009 (ip), vehicle: Klucel (hydroxypropylcellulose) (HPC)
[2] = dose: 200.0 mg/kg/injection, schedule: Q01DX009 (ip), vehicle: Klucel (hydroxypropylcellulose) (HPC)
[3] = dose: 400.0 mg/kg/injection, schedule: Q04DX003 (ip), vehicle: Klucel (hydroxypropylcellulose) (HPC)
[4] = dose: 240.0 mg/kg/injection, schedule: Q01DX005 (ip), vehicle: saline with Tween-80
[5] = dose: 200.0 mg/kg/injection, schedule: Q04DX002 (ip), vehicle: saline with Tween-80
[6] = dose: 400.0 mg/kg/injection, schedule: Q04DX002 (ip), vehicle: saline with Tween-80
[7] = dose: 200.0 mg/kg/injection, schedule: Q01DX005 (ip), vehicle: Klucel (hydroxypropylcellulose) (HPC)

SMILES: COC(=O)Nc1cccc(-c2nc3ccc(NC(=O)OC)cc3c(=O)n2-c2ccccc2)c1
- survivor count (dose: 32.0 mg/kg/injection, schedule: Q01DX005 (oral), vehicle: Klucel (hydroxypropylcellulose) (HPC)): 2 of 6 and 3 of 6
- survivor count (dose: 50.0 mg/kg/injection, schedule: Q01DX009 (ip), vehicle: Klucel (hydroxypropylcellulose) (HPC)): 5 of 6
- T/C (dose: 50.0 mg/kg/injection, schedule: Q01DX009 (ip), vehicle: saline): 130 % of control
- survivor count (dose: 64.0 mg/kg/injection, schedule: Q01DX005 (oral), vehicle: Klucel (hydroxypropylcellulose) (HPC)): 2 of 6 and 3 of 6
- T/C (dose: 64.0 mg/kg/injection, schedule: Q01DX005 (oral), vehicle: saline): 144 % of control
- survivor count [1]: 2 of 6
- T/C (dose: 100.0 mg/kg/injection, schedule: Q01DX009 (oral), vehicle: Klucel (hydroxypropylcellulose) (HPC)): 146 % of control [5 of 6 alive]
- survivor count (dose: 128.0 mg/kg/injection, schedule: Q01DX005 (oral), vehicle: Klucel (hydroxypropylcellulose) (HPC)): 1 of 6 and 3 of 6
- survivor count [2]: 2 of 6
- survivor count (dose: 200.0 mg/kg/injection, schedule: Q01DX009 (ip), vehicle: saline): 4 of 6
- survivor count (dose: 256.0 mg/kg/injection, schedule: Q01DX005 (oral), vehicle: Klucel (hydroxypropylcellulose) (HPC)): 2 of 6
- survivor count (dose: 400.0 mg/kg/injection, schedule: Q01DX009 (ip), vehicle: saline): 5 of 6
- survivor count (dose: 512.0 mg/kg/injection, schedule: Q01DX005 (oral), vehicle: Klucel (hydroxypropylcellulose) (HPC)): 0 of 6
- survivor count (dose: 1024.0 mg/kg/injection, schedule: Q01DX005 (oral), vehicle: Klucel (hydroxypropylcellulose) (HPC)): 2 of 6

SMILES: Cc1cc2cc(Cl)c(CN)cc2[nH]1
- survivor count (dose: 200.0 mg/kg/injection, schedule: Q04DX003 (ip), vehicle: Klucel (hydroxypropylcellulose) (HPC)): 4 of 6
- survivor count [3]: 2 of 6

SMILES: Cc1[nH]c(C)c2c(=O)ccsc12
- survivor count [4]: 6 of 6

SMILES: COc1ccc(C2NC(C(=O)O)CS2)cc1OC (stereo unspecified)
- survivor count (dose: 100.0 mg/kg/injection, schedule: Q01DX009 (ip), vehicle: suspension in saline): 6 of 6

SMILES: C=CC(Br)CCCBr (stereo unspecified)
- survivor count [5]: 0 of 5
- survivor count [6]: 0 of 5

SMILES: COC1=CC(=O)C(C#CCOCc2ccccc2)=CC1=O
- survivor count (dose: 60.0 mg/kg/injection, schedule: Q01DX005 (ip), vehicle: Klucel (hydroxypropylcellulose) (HPC)): 3 of 6
- survivor count (dose: 120.0 mg/kg/injection, schedule: Q01DX005 (ip), vehicle: Klucel (hydroxypropylcellulose) (HPC)): 2 of 6
- survivor count (dose: 240.0 mg/kg/injection, schedule: Q01DX005 (ip), vehicle: Klucel (hydroxypropylcellulose) (HPC)): 0 of 6

SMILES: C=CS(=O)(=NN1C(=O)c2ccccc2C1=O)c1ccc(C)cc1 (stereo unspecified)
- survivor count (dose: 100.0 mg/kg/injection, schedule: Q01DX001 (ip), vehicle: Klucel (hydroxypropylcellulose) (HPC)): 1 of 5
- survivor count (dose: 200.0 mg/kg/injection, schedule: Q01DX001 (ip), vehicle: Klucel (hydroxypropylcellulose) (HPC)): 0 of 5 and 1 of 5
- survivor count (dose: 400.0 mg/kg/injection, schedule: Q01DX001 (ip), vehicle: Klucel (hydroxypropylcellulose) (HPC)): 0 of 5 (2×)

SMILES: CC(C)CC1([N+](=O)[O-])CN(C)CC2CCCCN2C1 (stereo unspecified)
- survivor count (dose: 200.0 mg/kg/injection, schedule: Q04DX002 (ip), vehicle: saline): 2 of 6
- survivor count (dose: 400.0 mg/kg/injection, schedule: Q04DX002 (ip), vehicle: saline): 0 of 6

SMILES: Nc1nc(N)c2c(ccc3c2ccn3Cc2cccc([N+](=O)[O-])c2)n1
- T/C (dose: 3.12 mg/kg/injection, schedule: Q01DX005 (ip), vehicle: saline with Tween-80): 134 % of control
- T/C (dose: 6.25 mg/kg/injection, schedule: Q01DX005 (ip), vehicle: saline with Tween-80): 128, 148, 149 % of control
- survivor count (dose: 25.0 mg/kg/injection, schedule: Q01DX005 (ip), vehicle: saline with Tween-80): 2 of 5 and 6 of 6

SMILES: O=C1C(Br)=CC2C1C1C=CC2(Br)C1=O (stereo unspecified)
- survivor count [4]: 0 of 6

SMILES: C/C(=N\NC(=O)c1ccccc1)c1cccc(/C(C)=N/NC(=O)c2ccccc2)n1.O=S(=O)([O-])[O-].[Fe+2]
- T/C (dose: 100.0 mg/kg/injection, schedule: Q01DX001 (ip), vehicle: saline with Tween-80): 126 % of control
- survivor count (dose: 200.0 mg/kg/injection, schedule: Q01DX001 (ip), vehicle: saline with Tween-80): 0 of 6
- survivor count (dose: 400.0 mg/kg/injection, schedule: Q01DX001 (ip), vehicle: saline with Tween-80): 0 of 6

SMILES: COC(=O)CCCOc1ccc(N(CCCl)CCCl)cc1
- survivor count [3]: 0 of 6

SMILES: O=C1c2cc(Cl)ccc2-c2c(NC(=O)C(Cl)Cl)cc(Cl)cc21
- survivor count [1]: 2 of 6
- survivor count [2]: 0 of 6

SMILES: C1CCC2(CC1)CSSC2
- survivor count (dose: 25.0 mg/kg/injection, schedule: Q04DX002 (ip), vehicle: saline with Tween-80): 0 of 6
- survivor count (dose: 100.0 mg/kg/injection, schedule: Q04DX002 (ip), vehicle: saline with Tween-80): 0 of 6
- survivor count [5]: 0 of 6
- survivor count [6]: 0 of 6

SMILES: COc1nc(C(Br)Br)c([N+](=O)[O-])c(N2CCOCC2)n1
- survivor count [7]: 4 of 6

SMILES: Nc1nc(=S)c2[nH]c(N=Nc3ccc(S(N)(=O)=O)cc3)nc2[nH]1
- T/C (dose: 6.25 mg/kg/injection, schedule: Q04DX003 (ip), vehicle: Klucel (hydroxypropylcellulose) (HPC)): 140 % of control
- T/C (dose: 12.5 mg/kg/injection, schedule: Q04DX003 (ip), vehicle: Klucel (hydroxypropylcellulose) (HPC)): 133 % of control
- T/C (dose: 25.0 mg/kg/injection, schedule: Q04DX003 (ip), vehicle: Klucel (hydroxypropylcellulose) (HPC)): 133 % of control
- T/C (dose: 50.0 mg/kg/injection, schedule: Q04DX003 (ip), vehicle: Klucel (hydroxypropylcellulose) (HPC)): 143 % of control
- survivor count (dose: 100.0 mg/kg/injection, schedule: Q04DX003 (ip), vehicle: Klucel (hydroxypropylcellulose) (HPC)): 3 of 6

SMILES: CC1CN2CC(C)O[Si](CC[Si](C)(C)C)(O1)OC(C)C2 (stereo unspecified)
- survivor count [7]: 5 of 6

SMILES: CC(C)(C)C1CCN(Cc2ccccc2)CC1
- survivor count (dose: 200.0 mg/kg/injection, schedule: Q01DX005 (ip), vehicle: saline with Tween-80): 0 of 6

SMILES: Cc1cc(O)c2c(c1O)C(=O)C13C(=C2O)C(=O)C2C(O)C1C1C(O)C3C(=O)C3=C(O)c4c(O)cc(C)c(O)c4C(=O)C321 (stereo unspecified)
- T/C (dose: 1.56 mg/kg/injection, schedule: Q01DX009 (ip), vehicle: saline with Tween-80): 127 % of control
- T/C (dose: 3.0 mg/kg/injection, schedule: Q01DX005 (ip), vehicle: saline with Tween-80): 128 % of control
- T/C (dose: 3.13 mg/kg/injection, schedule: Q01DX009 (ip), vehicle: saline with Tween-80): 134 % of control
- T/C (dose: 6.0 mg/kg/injection, schedule: Q01DX005 (ip), vehicle: saline with Tween-80): 128 and 131 % of control
- survivor count (dose: 6.25 mg/kg/injection, schedule: Q01DX009 (ip), vehicle: saline with Tween-80): 4 of 6
- survivor count (dose: 12.0 mg/kg/injection, schedule: Q01DX005 (ip), vehicle: saline with Tween-80): 0 of 10 and 5 of 6

SMILES: CCCCCCCC[N+](C)(C)Cc1ccc(Oc2ccc(C[N+](C)(C)CCCCCCCC)cc2)cc1
- survivor count (dose: 25.0 mg/kg/injection, schedule: Q04DX003 (ip), vehicle: saline): 5 of 6
- survivor count (dose: 50.0 mg/kg/injection, schedule: Q04DX003 (ip), vehicle: saline): 0 of 6
- survivor count (dose: 100.0 mg/kg/injection, schedule: Q04DX003 (ip), vehicle: saline): 0 of 6
- survivor count (dose: 200.0 mg/kg/injection, schedule: Q04DX003 (ip), vehicle: saline): 1 of 6
- survivor count (dose: 400.0 mg/kg/injection, schedule: Q04DX003 (ip), vehicle: saline): 0 of 6
